Measured values as given in paper doi:10.1101/2023.04.06.535844.
Results are given in words; binding and its absence hold for the method and conditions named. In cells and extracts the contact can be indirect. Some binding calls cover weakened binding; strength is not graded here. Tags and fused reporters may be left off the sequences shown.

Chains of the proteins cited; added tags and fusions are not shown. Residues count along the entry.
UniProt P28799, residues 18-593: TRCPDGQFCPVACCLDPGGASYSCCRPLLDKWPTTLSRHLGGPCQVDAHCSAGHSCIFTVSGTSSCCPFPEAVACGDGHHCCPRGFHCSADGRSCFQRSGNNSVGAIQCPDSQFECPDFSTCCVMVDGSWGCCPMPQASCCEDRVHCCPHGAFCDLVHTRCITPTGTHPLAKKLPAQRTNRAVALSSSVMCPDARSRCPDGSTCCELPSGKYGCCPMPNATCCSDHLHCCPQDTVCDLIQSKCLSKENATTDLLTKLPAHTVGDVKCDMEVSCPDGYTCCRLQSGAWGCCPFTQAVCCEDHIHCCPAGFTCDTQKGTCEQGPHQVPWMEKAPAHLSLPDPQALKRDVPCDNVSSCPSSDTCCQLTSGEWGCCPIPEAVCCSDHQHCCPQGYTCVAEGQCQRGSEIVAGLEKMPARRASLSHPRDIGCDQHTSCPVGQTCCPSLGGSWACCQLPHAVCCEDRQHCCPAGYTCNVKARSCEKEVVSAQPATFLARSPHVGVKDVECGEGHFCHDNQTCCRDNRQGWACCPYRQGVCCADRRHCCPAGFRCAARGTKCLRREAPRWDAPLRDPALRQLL

Experiments:
Experiment in all cases: co-IP
[1] = target: GFP-PGRN (human progranulin), expressed in HEK293T cells (human) (UniProt P28799)
[2] = target: Flag-PGRN (human) (human) (UniProt P28799)
[3] = target: T1, mouse sPLA2-IIA-myc (mouse Pla2g2a-Myc-DDK) (mouse) (UniProt P31482)
T1 sequence: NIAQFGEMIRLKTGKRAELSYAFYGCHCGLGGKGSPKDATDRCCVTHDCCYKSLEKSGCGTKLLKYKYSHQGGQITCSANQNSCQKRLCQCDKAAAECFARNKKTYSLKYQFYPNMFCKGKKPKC

B1: human sPLA2-IIA-myc (human Pla2g2a-Myc-His) (enzyme, UniProt P14555 21-144)
chain: NLVNFHRMIKLTTGKEAALSYGFYGCHCGVGGRGSPKDATDRCCVTHDCCYKRLEKRGCGTKFLSYKFSNSGSRITCAKQDSCRSQLCECDKAAATCFARNKTTYNKKYQYYSNKHCRGSTPRC
With B1 the binding [1] was “binds”.

B2: untagged human sPLA2-IIA (enzyme, UniProt P14555 21-144)
chain: NLVNFHRMIKLTTGKEAALSYGFYGCHCGVGGRGSPKDATDRCCVTHDCCYKRLEKRGCGTKFLSYKFSNSGSRITCAKQDSCRSQLCECDKAAATCFARNKTTYNKKYQYYSNKHCRGSTPRC
In the case of B2, the binding [2] is reported as “binds”.

B3: FLAG-mouse-PGRN (protein, UniProt P28798 18-589)
chain: TQCPDGQFCPVACCLDQGGANYSCCNPLLDTWPRITSHHLDGSCQTHGHCPAGYSCLLTVSGTSSCCPFSKGVSCGDGYHCCPQGFHCSADGKSCFQMSDNPLGAVQCPGSQFECPDSATCCIMVDGSWGCCPMPQASCCEDRVHCCPHGASCDLVHTRCVSPTGTHTLLKKFPAQKTNRAVSLPFSVVCPDAKTQCPDDSTCCELPTGKYGCCPMPNAICCSDHLHCCPQDTVCDLIQSKCLSKNYTTDLLTKLPGYPVKEVKCDMEVSCPEGYTCCRLNTGAWGCCPFAKAVCCEDHIHCCPAGFQCHTEKGTCEMGILQVPWMKKVIAPLRLPDPQILKSDTPCDDFTRCPTNNTCCKLNSGDWGCCPIPEAVCCSDNQHCCPQGFTCLAQGYCQKGDTMVAGLEKIPARQTTPLQIGDIGCDQHTSCPVGQTCCPSLKGSWACCQLPHAVCCEDRQHCCPAGYTCNVKARTCEKDVDFIQPPVLLTLGPKVGNVECGEGHFCHDNQTCCKDSAGVWACCPYLKGVCCRDGRHCCPGGFHCSARGTKCLRKKIPRWDMFLRDPVPRPLL
B3 was tested, and the binding [3] was “binds”.
